According to EP4353258A1:
Positions count from the first letter of the chain named. These are yes or no findings as the source states them, for the method shown. Binding calls can cover weak binding; strength is not graded here.

B1: anti-CD206 antibody (No. 10) (antibody, V domains shown)
VH: QVQLQQPGAELVRPGSSVKLSCKASGYTFISYWMDWVKQRPGQGLEWIGNIFPSDSETHYNQKFRDKATLTVDKSSSTASIHLSSLTSEDSAVYYCGRRDSSGWIDYWGQGTTLTVSS
VL: DIQMTQTTSSLSASLGDRVTISCRASQDISNYLNWYQQKPDGTVKLLIYYTSRFHSGVPSRFSGSGSGTDYSLTIHNVEQEDIATYFCQQSSMLPFTFGSGTKLEMK
B2: anti-CD206 antibody (No. 83) (antibody, V domains shown)
VH: QVQLLQSGAELVRPGTAVKMSCKASEYTFTNYWIGWARQRPGHGLEWIGDIYPGGGYINYNEKFKGKATLTADKSSSTVYMQFSSLTSEDSAIYYCARGGSNYVGHFDYWGQGTTLTVSS
VL: DIQMTQTTSSLSASLGDRVTISCRASQDISNYLNWYQQKPDGTVKLLIYYTSILHSRVPSRFSGSGSGTDYSLTISNLEQEDIATYFCQHGHTLPWTFGGGTKLEIK
B3: anti-CD206 antibody (No. 27) (antibody, V domains shown)
VH: QVQLQQPGAELVKPRASVKLSCRASGYIFISYWMQWVKQRPGQGLEWIGEIDPSDSYINYNQKFKGKASLTVDTSSNTAYMQLSSLTSEDSAVYYCATGDMGDDFYAMDYWGQGTSVTVSS
VL: DIVMNQDELSNPVTSGESVSISCRSSKSLLYKDGKTYLNWFLQRPGQSPQLLIYLMSTRASGVSDRFSGSGSGTDFTLEISRVKAEDVGVYYCQQLVEYPFTFGGGTKLEIK
B4: anti-CD206 antibody (No. 35) (antibody, V domains shown)
VH: QVQLQQPGAELVKPGASVKVSCKASGYTFTTYWMHWVKQRPGQGLEWIGRIHPSDSDSNYNQKFKGKATLTVDKSSSTAYMQLSSLTSEDSAVYYCAIGRGFAYWGQGTLVTVSA
VL: DIVLTQSPASLAVSLGQRAAISCRASESVDNYGNSFMHWYQQKPGQPPKLLIYRASNLESGIPARFSGSGSRTDFTLTINPVEADDVATYYCQQGNEDPYTFGGGTKLEIK
B5: anti-CD206 antibody (No. 40) (antibody, V domains shown)
VH: QVQLQQSGAELVRPGTSVKVSCKASGYAFTNYLIEWVKQRPGQGLEWIGVINPGSGGTNYNEKFKGKATLTADKSSSTAYMQLSSLTSEDSAVYFCARDYGSTFDYWGQGTTLTVSS
VL: DIVLTQSPATLSVTPGDSVSLSCRASQSISSNLHWYQQKSHESPRLLINFASQSISGIPSRFSGSGSGTDFTLNINTVETEDFGMYFCQQSNSWPLTFGAGTKLELK
B6: anti-CD206 antibody (No. 44) (antibody, V domains shown)
VH: QVQLQQSGAELVRPGTSVKVSCKASGYAFTDYLIEWVKQRPGQGLEWIGVINPGRGGTNYNEKFKGKATLTADKSSSTAYMQLSSLTSEDSAVYFCARYYGRSFGYFDVWGTGTTVTVSS
VL: DIQMTQSPASQSASLGESVTITCLASQTIGTWLAWYQQKPGKSPQLLIYAATSLADGVPSRFSGSGSGTKFSFKISSLQAEDFVSYYCQQLYSPPLTFGAGTKLELK
B7: anti-CD206 antibody (No. 47) (antibody, V domains shown)
VH: B1 VH with I30T, F52Y, R65K, K67R, S77T, S80Y, I81M, H82Q, G97T
VL: B2 VL with I53R, R57G, S65R, H90Q, H92N, W96F, G100S, K103Q
B8: anti-CD206 antibody (No. 54) (antibody, V domains shown)
VH: EVQLVESGGGLVQPKGSLKLSCAASGFSFNTYTMNWVRQAPGKGLEWVARIRSKSNNYETYYADSVKDRFTISRDDSESMLYLQMNNLKTEDTAMYYCVSPDSDSWFAYWGQGTLVTVSA
VL: DIQMNQSPSSLSASLGDTITIACHASQNINVWLSWYQQKPGNIPKLLIYKASNLHTGVPSRFSGSGSGTGFTLTISSLQPEDIATYYCQQGQSYPLTFGGGTKLEIK
B9: anti-CD206 antibody (No. 59) (antibody, V domains shown)
VH: QVQLQQPGAELVKPGASVKMSCKASGYTFSTYWITWVKQRPGQGLEWIGDIYPGGDSTNYNEKFKSKATLTEDTSSSTVYMQLSSLTSEHSAVYYCARGITGGYFDYWGQGTTLTVSS
VL: B2 VL with S22T, Q38R, K45R, I53G, R57G, I83F, H90Q, K103N
B10: anti-CD206 antibody (No. 72) (antibody, V domains shown)
VH: QVQLQQPGAELVRPGSSVKLSCKASGYTFTTYWMHWVKQRPIQGLEWIGNIDPSDSETHYNQKFKDKATLTVDKSSSTAYMQLNSLTSEDSAVYYCARGDGYYVYFAYWGQGTTLTVSS
VL: EIVLTQSPALMAASPGEKVTITCSVSSSISSSNLHWYQQKSETSPKPWIYATSNLASGVPVRFSGSGSGTSYSLTISSMAAEDAATYFCQQWSSFPLTFGAGTKLELK
B11: anti-CD206 antibody (No. 73) (antibody, V domains shown)
VH: QVQLKQSGAELVKPGASVKISCKASGYTFTDYYINWVKQRPGQGLEWIGKIGPGSGSTYYNEKFKGKATLTADKSSSTAYMQLSSLTSEDSAVYFCARIGSSFFDYWGQGTTLTVSS
VL: DIKMTQSPSSMYASLGERVTITCKASQDINSYLSWFQQKPGKSPKTLIYRANRLVDGVPSRFSGSGSGQDYSLTISSLEYEDMGIYYCLQYDEFPLTFGAGTKLELK

Target: CD206
Assay: conclusion from flow cytometry and ELISA of Example 4

Binder | binding
B1 | binds
B2 | binds
B3 | binds
B4 | binds
B5 | binds
B6 | binds
B7 | binds
B8 | binds
B9 | binds
B10 | binds
B11 | binds

Target: CD206 expressed on HEK293T cells (co-expressed with Venus) (Mus musculus (Mouse))
Assay: flow cytometry, APC-labelled antibody on HEK293T cells expressing CD206 and Venus

Binder | binding
B1 | binds
B2 | binds
B3 | binds
B4 | binds
B6 | binds
B7 | binds
B8 | binds
B10 | binds
